Values quoted from earlier work, collected in patent US20060021470A1, “Compositions for enhancing biological functions in organisms” (priority 2004, published 2006).
At least one compound was matched to its structure with a doubt left.

Test system: ech42 (42-kDa endochitinase-encoding) gene expression
Settings: gfp fusion strain of T. atroviride P1; confrontation with R. solani or incubation with R. solani materials; cited from earlier work

CC(=O)N[C@H]1[C@H](O[C@H]2[C@@H](O)[C@@H](NC(C)=O)[C@H](O[C@H]3[C@H](O)[C@H]4N=C(N(C)C)O[C@H]4[C@@H]3CO)O[C@@H]2CO)O[C@H](CO)[C@@H](O)[C@H]1O [allosamidin]
ech42 expression: blocked
